At least one read-out could not be matched to a standard name with certainty.
Test system: JJN3R multiple myeloma cell line
Experiment: Human tumor xenograft model in mice, JJN3R
Assay type: in vivo
Settings: QDx7
Description: Human Tumor Xenograft Models in Mice
All rodents were obtained from Jackson Laboratory. (Bar Harbor, Me.), and maintained in an ammonia-free environment in a defined and pathogen-free colony. All mice were quarantined approximately 1 week prior to their use for tumor propagation and drug efficacy testing. Mice were fed food and water ad libitum. The animal care program of Bristol-Myers Squibb Pharmaceutical Research Institute is fully accredited by the American Association for Accreditation of Laboratory Animal Care (AAALAC). All experiments were performed in accordance with Bristol-Myers Squibb (BMS) animal test methods and guidelines.
Tumor xenografts were grown and maintained subcutaneously (SC) in NSG (NOD scid IL2 receptor gamma chain knockout) mice (Jackson Lab). Tumors were propagated as subcutaneous transplants using tumor fragments obtained from donor mice.
Preclinical Chemotherapy Trials
The required numbers of animals needed to detect a meaningful response were pooled at the start of the experiment and each was given bilateral subcutaneous implants of two tumor fragments (˜20 mg) with a 13-gauge trocar. Tumors were allowed to grow to the pre-determined size window (tumors outside the range were excluded) and animals were evenly distributed to various treatment and control groups. There were typically 6-8 mice per treatment and control groups, consisting of 10-12 tumors. Treatment of each animal was based on individual body weight. Treated animals were checked daily for treatment related toxicity/mortality. […]
Tumor response was determined by measurement of tumors with a caliper twice a week, until the tumors reached a predetermined “target” size of 0.5 gm or 1 gm depending on the tumor type. […]
Tumor response criteria are expressed in terms of tumor growth inhibition (% TGI). […] For this purpose, the tumor weight of a group is expressed as medium tumor weight (MTW).
Tumor growth inhibition is calculated as follows: […]
Tumor response was also expressed in terms of tumor growth delay and expressed as log cell kill (LCK value), defined as the difference in time (days) required for the treated tumors (T) to reach a predetermined target size compared to those of the control group (C).
Whenever possible, antitumor activity was determined at a range of dose levels up to the maximum tolerated dose (MTD) which is defined as the dose level immediately […] which excessive toxicity (i.e. more than one death) occurred. When death occurred, the day of death was recorded. […]
For administration of BET inhibitors to rodents, compounds were dissolved in […]/10% TPGS/10% Ethanol. BET inhibitors were typically administered orally on a schedule of QDx7 or QDx10 (5 day-on-2 day-off), although other schedules had also been evaluated and shown to be efficacious

Row | SMILES | LCK (1 mg/kg) | LCK (4 mg/kg)
1 | Cc1nnn(C)c1-c1cnc2c3ccc([C@](C)(O)C4CC4)c(F)c3n([C@H](c3ccccc3)C3CCOCC3)c2c1 (single isomer, unassigned) [Example 432] | 0.4 | 1.4
2 | [2H]C([2H])([2H])c1nnn(C)c1-c1cnc2c3ccc([C@@](C)(O)C4CC4)c(F)c3n([C@H](c3ccccc3)C3CCOCC3)c2c1 [Example 433, (1 S)-1-cyclopropyl-1-{6-fluoro-3-[4-(^2H3)methyl-1-methyl-1H-1,2,3-triazol-5-yl]-5-[(S)-oxan-4-yl(phenyl)methyl]-5H-pyrido[3,2-b]indol-7-yl}ethan-1-ol] | 0.5 | –
3 | [2H]C([2H])([2H])c1nnn(C)c1-c1cnc2c3ccc([C@](C)(O)C4CC4)c(F)c3n([C@H](c3ccccc3)C3CCOCC3)c2c1 [Example 434, (1R)-1-cyclopropyl-1-{6-fluoro-3-[4-(^2H3)methyl-1-methyl-1H-1,2,3-triazol-5-yl]-5-[(5)-oxan-4-yl(phenyl)methyl]-5H-pyrido[3,2-b]indol-7-yl}ethan-1-ol] | 0.5 | –

— US20160318928A1, “TRICYCLIC COMPOUNDS AS ANTICANCER AGENTS” (BRISTOL-MYERS SQUIBB COMPANY, priority 2013, published 2016)
